{"source": "paper PMC8483785", "about": "“The plant nuclear lamina proteins NMCP1 and NMCP2 form a filamentous network with lateral filament associations” (Journal of Experimental Botany, 2021)", "molecular_target": "His-tagged DcNMCP2 (Daucus carota nuclear matrix constituent protein 2 with an N-terminal 6x His tag) (Daucus carota) (UniProt D2YZU8)", "test": "transmission electron microscopy (low-angle rotary shadowing, negative staining); after refolding in H2O, dialysed against 20 mM Na acetate (pH 5.6) with or without 40 mM KCl, 1-16 h at 4 °C, to promote polymerization; dimers to filaments and filament bundles; both purified", "note": "Results are given in words; binding and its absence hold for the method and conditions named. Some entries that bind do so weakly or less than the wild type. Sequences can lack the tags named with a protein."}
{"binder": "His-tagged DcNMCP2 (Daucus carota nuclear matrix constituent protein 2 with an N-terminal 6x His tag) (natural protein, UniProt D2YZU8 1-927, looked up, Nuclear matrix constituent protein 2 (NMCP2) of Daucus carota; longest ORF of cDNA clone pD2m, amplified from the start codon to the stop codon; the PCR product included a 2808 bp ORF; GenBank AB514509; also called 6x His-tagged DcNMCP2; product of pDC2mN; not shown: His6, N-terminal, kept) MASPRLTVIQSEKTTVTSSRVSRSSMSDDDIWKRLQEAGFDEDSIKRRDKASLIAYITKLEAEIYDHQYQMGLLIMERKEWGSKFERVEAALNSAELMRKHDKNLYLKDLAEAKKREENLKKAIEIERECLANIEKTLHELRAEYAETKVMADSKLVEARSMIEDALKKLSEADAKKHAAESLEAEASRYHSAAERKLHEVEAREDDLRRRATSFKTECDTKEEEILHERRLLNERQKALQQSQQRLVDGQDLLNKRESHIFERTQELNRKEKELEASKLKQEEELQALVEQQANLETKASSLSLREEVITKSELEVKKREEELCVLQEKLEKKESERIQQLLANYEASLSMKKSEFEAELEVKRKSVHDDIENKRRDWELREVDLHHREELILEKEHELEMQSRAVVDKERDLAGRFSLLEEKENRLHAVEKEIESKEALLQKEKEEIISSKLDIQRSLDALEDEKKQLHHAEEKMEAMKSETNELCVLESKLKEEIETIRAQKQELETEADEMKELKLKFEIEWQSIDEKRKELQKEAECINEQRESLELTLKDERNSLKLEKDAMRDEYMRNNESLSRDREDFMKKMEHERSEWFSKIQKERSDYLLAIEVQSKDLEDRLAKRREEIESYLAERERAFEEEKKKELMRMDTLRETLARETEQVNAELNRLDTERREINLDRERRDREWAELNTLIEELKVQRQKLEKQRELMRADKEEILVQIEHLKQLEDLKVVPDRIALTDIQQSDLQPSKRVSARRSLKRQSGLDSGCRAEDNGNASSGNGSVILSPPLSSPFSWLKRCASSLLEQKVSNKKMRHSEEIITPSTIPARLNAPDDEHAVISANQQTPVHAKETTVYIDKIITIREVTSFNDAIVDGNNQNLEEALSQRAEEKLEDDNNIESEKLEKNGEVDPKIMQASLTEQ", "values": [{"measurement": "binding", "result": "binds weakly"}]}
